# Measurements: the supplement of paper PMC4635364
# Structures can show the parent of a compound that is named as a salt. This is one part of the list. This data set is noisy: repeats of one test often differ as much as different tests do.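 Cells: ReNCell VM human fetal ventral-midbrain neural progenitors, differentiated mitogen-free. Blinded raters compared doublecortin-stained (early neurons) or tyrosine hydroxylase-stained (dopaminergic neurons) images with untreated wells, where 0 means no change. After repeats and both raters were averaged, compounds scoring 2 or above became hits for retesting.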
# What was measured:
# ReNCell VM [1] = experiment: neuronal differentiation score (DCX+ cell fraction vs untreated, manual image score) (score (-3 to 3)); higher = more neuronal differentiation; conditions: 2 uM, 2 weeks
# ReNCell VM [2] = experiment: dopaminergic neuron differentiation score (TH+ cell fraction vs untreated, manual image score) (score (0 to 3)); higher = more TH+ dopaminergic neuron differentiation; conditions: 2 uM, 4 weeks, BDNF 10 ng/ml + GDNF 10 ng/ml
Structure (SMILES),neuronal differentiation score (ReNCell VM [1]; library: LOPAC),neuronal differentiation score (ReNCell VM [1]; library: Tocriscreen),dopaminergic neuron differentiation score (ReNCell VM [2]; library: LOPAC),dopaminergic neuron differentiation score (ReNCell VM [2]; library: Tocriscreen),neuronal differentiation score (ReNCell VM [1]; library: Prestwick),dopaminergic neuron differentiation score (ReNCell VM [2]; library: Prestwick),neuronal differentiation score (ReNCell VM [1]; library: Phytochemical),dopaminergic neuron differentiation score (ReNCell VM [2]; library: Phytochemical)
COc1ccc(Cl)cc1NC(=O)Nc1cc(C)nc2ccccc12,inactive: 0,inactive: 0,inactive: 0,inactive: 0,–,–,–,–
O=C1Cc2c([nH]c3ccc(Br)cc23)-c2ccccc2N1 [Kenpaullone],active: 2,active: 3,inactive: 0,inactive: 0,–,–,–,–
OC(CN1CCC(Cc2ccc(F)cc2)CC1)c1ccc(Cl)cc1 (stereo not drawn) [Eliprodil],inactive: 0,inactive: 0,inactive: 0,inactive: 0,–,–,–,–
COc1ccc2[nH]c([S+]([O-])Cc3ncc(C)c(OC)c3C)nc2c1 (stereo not drawn) [Omeprazole],–,inactive: 0,–,inactive: 0,inactive: 0,inactive: 0,–,–
C=C[C@H]1CN2CC[C@H]1C[C@@H]2[C@@H](O)c1ccnc2ccc(OC)cc12 [Quinidine hydrochloride monohydrate],–,–,–,–,inactive: 0,inactive: 0,inactive: 0,inactive: 0
CCCCC1C(=O)N(c2ccccc2)N(c2ccccc2)C1=O [Phenylbutazone],inactive: -1,–,inactive: 0,–,inactive: 0,inactive: 0,–,–
CC(=O)S[C@@H]1CC2=CC(=O)CC[C@]2(C)[C@H]2CC[C@@]3(C)[C@@H](CC[C@@]34CCC(=O)O4)[C@H]12 [Spironolactone],inactive: 0,–,inactive: 0,–,inactive: 0,inactive: 0,–,–
O=C1NC(c2cccc([N+](=O)[O-])c2)=CCN1c1ccccc1O [Icilin],inactive: 0,inactive: 0,inactive: 0,inactive: 0,–,–,–,–
Cc1cccc(C)c1OCC(C)N (stereo not drawn) [Mexiletine hydrochloride],–,inactive: 0,–,inactive: 0,inactive: 0,inactive: 0,–,–
N/C(=N\C(=O)c1nc(Cl)c(N)nc1N)NCc1ccccc1 [Benzamil hydrochloride],inactive: 0,–,inactive: 0,–,inactive: 0,inactive: 0,–,–
C[C@H]1O[C@H](O[C@H]2[C@H](O)[C@@H](O)[C@@H](O[C@H]3[C@H](O)[C@@H](O)C(O)O[C@@H]3CO)O[C@@H]2CO)[C@H](O)[C@@H](O)[C@@H]1N[C@H]1C=C(CO)[C@@H](O)[C@H](O)[C@H]1O (stereo partly drawn) [Acarbose],–,inactive: 0,–,inactive: 0,inactive: 0,inactive: 0,–,–
CC(NCCc1ccc(O)cc1)C(O)c1ccc(O)cc1 (stereo not drawn) [Ritodrine hydrochloride],inactive: 0,–,inactive: 0,–,inactive: 0,inactive: 0,–,–
CN1CCc2cc(Cl)c(O)cc2[C@@H](c2ccccc2)C1,inactive: 1,inactive: -2,inactive: 0,inactive: 0,–,–,–,–
Oc1ncnc2[nH]ncc12 [Allopurinol],inactive: 0,–,inactive: 0,–,inactive: 0,inactive: 0,–,–
CCn1ccnc1CC1COc2ccccc2O1 (stereo not drawn) [Imiloxan hydrochloride],inactive: 1,inactive: 0,inactive: 0,inactive: 0,–,–,–,–
O=C(O)C1=CCNCC1 [Isoguvacine hydrochloride],inactive: 0,inactive: 0,inactive: 0,inactive: 0,–,–,–,–
C[C@@H](N)[C@H]1CC[C@H](C(=O)Nc2ccncc2)CC1,inactive: 0,inactive: -1,inactive: 0,inactive: 0,–,–,–,–
CC(N/C(=N\C#N)Nc1ccncc1)C(C)(C)C (stereo not drawn) [Pinacidil],inactive: 0,–,inactive: 0,–,inactive: 0,inactive: 0,–,–
CN(C)[C@@H]1C(O)=C(C(N)=O)C(=O)[C@@]2(O)C(O)=C3C(=O)c4c(O)ccc(Cl)c4[C@@H](O)[C@H]3C[C@@H]12 [Demeclocycline hydrochloride],inactive: 0,–,inactive: 0,–,inactive: 0,inactive: 0,–,–
COc1cccc(NC(=O)/C=C/c2ccc(Cl)cc2)c1,inactive: -1,inactive: 0,inactive: 0,inactive: 0,–,–,–,–
CC[N+](C)(C)Cc1ccccc1Br [Bretylium tosylate],inactive: 0,–,inactive: 0,–,inactive: 0,inactive: 0,–,–
CC(=O)O[C@H]1C(=O)[C@@]2(C)[C@H]([C@H](OC(=O)c3ccccc3)[C@]3(O)C[C@H](OC(=O)[C@H](O)[C@@H](NC(=O)c4ccccc4)c4ccccc4)C(C)=C1C3(C)C)[C@]1(OC(C)=O)CO[C@@H]1C[C@@H]2O [Taxol],inactive: 0,inactive: 0,inactive: 0,inactive: 0,–,–,–,–

# Molecules shown so far containing an NH in an aromatic ring, in the order listed:
Structure (SMILES),neuronal differentiation score (ReNCell VM [1]; library: LOPAC),neuronal differentiation score (ReNCell VM [1]; library: Tocriscreen),dopaminergic neuron differentiation score (ReNCell VM [2]; library: LOPAC),dopaminergic neuron differentiation score (ReNCell VM [2]; library: Tocriscreen),neuronal differentiation score (ReNCell VM [1]; library: Prestwick),dopaminergic neuron differentiation score (ReNCell VM [2]; library: Prestwick),neuronal differentiation score (ReNCell VM [1]; library: Phytochemical),dopaminergic neuron differentiation score (ReNCell VM [2]; library: Phytochemical)
O=C1Cc2c([nH]c3ccc(Br)cc23)-c2ccccc2N1 [Kenpaullone],active: 2,active: 3,inactive: 0,inactive: 0,–,–,–,–
COc1ccc2[nH]c([S+]([O-])Cc3ncc(C)c(OC)c3C)nc2c1 (stereo not drawn) [Omeprazole],–,inactive: 0,–,inactive: 0,inactive: 0,inactive: 0,–,–
Oc1ncnc2[nH]ncc12 [Allopurinol],inactive: 0,–,inactive: 0,–,inactive: 0,inactive: 0,–,–
